# Library screen at single concentrations

Protein sequences, listed by entry. Tags and fused reporters are not part of them. Residues count along the entry.
UniProt Q4DA54, 1-478: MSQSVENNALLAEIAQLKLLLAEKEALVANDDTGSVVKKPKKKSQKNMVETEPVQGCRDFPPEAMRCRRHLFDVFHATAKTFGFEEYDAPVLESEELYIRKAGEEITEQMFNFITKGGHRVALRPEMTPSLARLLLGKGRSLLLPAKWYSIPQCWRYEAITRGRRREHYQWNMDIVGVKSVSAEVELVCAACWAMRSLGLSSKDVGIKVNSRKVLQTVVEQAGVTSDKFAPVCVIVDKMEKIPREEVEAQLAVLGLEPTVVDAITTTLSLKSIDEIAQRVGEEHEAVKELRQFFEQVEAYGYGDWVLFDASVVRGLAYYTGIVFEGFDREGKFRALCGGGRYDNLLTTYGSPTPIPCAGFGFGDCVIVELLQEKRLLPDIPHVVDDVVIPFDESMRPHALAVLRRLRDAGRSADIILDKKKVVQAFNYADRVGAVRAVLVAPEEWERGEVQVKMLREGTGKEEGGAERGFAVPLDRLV
UniProt A4I591, 1-473: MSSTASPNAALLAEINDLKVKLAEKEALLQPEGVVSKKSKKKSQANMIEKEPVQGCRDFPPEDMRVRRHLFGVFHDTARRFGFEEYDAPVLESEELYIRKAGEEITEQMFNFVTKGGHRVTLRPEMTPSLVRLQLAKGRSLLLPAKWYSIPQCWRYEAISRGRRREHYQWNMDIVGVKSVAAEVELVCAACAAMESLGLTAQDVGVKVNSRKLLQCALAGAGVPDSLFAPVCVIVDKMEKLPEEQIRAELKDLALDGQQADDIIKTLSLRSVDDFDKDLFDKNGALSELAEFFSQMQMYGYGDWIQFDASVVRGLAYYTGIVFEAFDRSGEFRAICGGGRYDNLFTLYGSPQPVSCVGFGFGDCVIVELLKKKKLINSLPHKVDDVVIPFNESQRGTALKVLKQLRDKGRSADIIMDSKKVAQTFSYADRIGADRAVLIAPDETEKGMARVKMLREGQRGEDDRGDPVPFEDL

Values are the deposited “Percent Effect”, in %. How 0% and 100% were set is not recorded. Most values in the screen are low, and negative values occur. This is an unselected part of the compounds tested.

A: 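Enzyme assay of histidyl-tRNA synthetase; the read-out is not stated. Target: Histidine-tRNA ligase, Trypanosoma cruzi CL Brener (UniProt Q4DA54). Compounds at 30 µM. The record gives no direction; compounds that gave an IC50 in retests scored well above the rest, so higher reads as stronger inhibition. About 69,000 compounds were tested under these conditions; 0.045% (about 31) showed 50% or more at least once.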
B: 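Enzyme assay of histidyl-tRNA synthetase; the read-out is not stated. Target: Histidine-tRNA ligase, Leishmania infantum (UniProt A4I591). Compounds at 30 µM. The record gives no direction; compounds that gave an IC50 in retests scored well above the rest, so higher reads as stronger inhibition. The assay is labelled LdHisRS but filed under L. infantum. Size under these conditions: about 69,000 compounds, about 410 of them at 50% or above in at least one test.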

| compound | A | B |
|---|---|---|
| `Cc1nc(C2CCCN2C(=O)COCCOc2ccccc2)no1` (stereo not shown) | -2.89 | 6.667 |
| `CCc1ccc(C2COCCN2C(=O)NCc2cccc(C#N)c2)o1` (stereo not shown) | 9.091 | 13.33 |
| `CC(C)(C)CC(=O)NS(=O)(=O)c1ccc(C#N)cc1C(F)(F)F` | 4.651 | 0 |
| `CCS(=O)(=O)NC[C@]12COC[C@H]1CN(CCc1ccccc1)C2` | 5.747 | 2.632 |
| `Cc1cccc(OCC(O)CN2CCN(c3nccs3)CC2)c1` (stereo not shown) | 8.333 | 16.96 |
| `CN(Cc1ccccc1-n1cccn1)c1nc(N)nc2c1CCNCC2` | 7.317 | 13.56 |
| `COCCN1C[C@@H]2CN(Cc3cccc(F)c3)CCC[C@]2(C(=O)O)C1` | 2.174 | -4.854 |
| `CCS(=O)(=O)c1ncc(CN(C)Cc2ccccc2Cl)n1CCOC` | 2.513 | 2.4 |
| `Cc1cc(-c2nc(-c3c(C)ncc4c3CCNC4)no2)nc(C)n1` | -1.212 | -5.195 |
| `Cc1cnn(C2CN(Cc3nc(C(C)(C)C)no3)C2)c1` | 0.7634 | 19.18 |
| `CC(=O)Nc1ncc(S(=O)(=O)Nc2ccc(C)cc2)s1` | 9.565 | 15.52 |
| `Cc1ccccc1NC(=O)c1cncc(C2CCNCC2)n1` | 2.308 | 8.451 |
| `COCc1c(Br)cccc1NC(=O)CC(F)(F)F` | 5.952 | 12.4 |
| `COc1cccc(-c2nc(CC(=O)NC3(C)CCS(=O)(=O)C3)cs2)c1` (stereo not shown) | 4.094 | -10.53 |
| `COc1ccc(CNC(=O)CCN2CCOC(C(F)(F)F)C2)cc1` (stereo not shown) | 8.108 | 13.68 |
| `Cc1cc(C)cc(CN2CCCC2c2noc(C)n2)c1` (stereo not shown) | 8.671 | 17.02 |
| `Cc1nc([C@H]2C[C@@H]3CCN(Cc4scnc4C)C[C@H]3O2)no1` | 5.435 | 17.11 |
| `Cc1nnc([C@H]2C[C@@H]3CCN(C(=O)C4CCOCC4)C[C@H]3O2)[nH]1` | 5.063 | 15.52 |
| `O=C(Nc1cc(-c2ccncc2)no1)C1CCC1` | 5.82 | 14.71 |
| `CCc1cccc2cc(CNCCCN3CCOCC3)c(=O)[nH]c12` | 14.44 | 20.62 |
| `CC(=O)N1CCC2(CCN(CC3CCOC3)C2)CC1` (stereo not shown) | 9.524 | 4.545 |
| `Cc1cc(N2CCN(C(=O)CCc3scnc3C)CC2)cc(C)n1` | -0.6024 | -8.791 |
| `CNc1cccc(CC2COCCN(C(=O)c3cnn(C)c3)C2)n1` (stereo not shown) | 8.812 | 11.51 |
| `CN(Cc1nnc(C2CC2)o1)Cc1ccccc1-c1ccccc1` | 8.247 | 14.94 |
| `COc1cc(N2CC[C@@H](O)[C@@H]2Cc2ccccc2)ncn1` | 10.92 | 6.422 |
| `Cc1nc(CCNC(=O)CC2CCN(C(C)C)CC2)sc1Cl` | -9.184 | 4.959 |
| `Cc1nn(C)c(C)c1CCC(=O)N1CCN(CCn2cncn2)CC1` | 3.175 | -3.03 |
| `Cc1cc(C)n(CCN2CCC(N(C)Cc3nnc(C)n3C)C2)n1` (stereo not shown) | 3.478 | 0 |
| `Cc1noc(COCC(=O)N2CCCCC2c2nccs2)n1` (stereo not shown) | 7.792 | 11.43 |
| `COC(=O)NCC(=O)NCC(C)(C)c1cccc(C(F)(F)F)c1` | 3.191 | 16.42 |
| `CCn1ccnc1CN1CCCC1c1noc(C2CC2)n1` (stereo not shown) | 3.458 | 8.929 |
| `COc1ccc(OC)c(-n2cnnc2CN)c1` | 1.087 | 21.21 |
| `CN1CC(=O)N(c2ccccc2)CC12CCN(CC1CC1)C2` (stereo not shown) | 1.639 | -3.922 |
| `CN1CCCN(C(=O)c2nc3c(s2)CCCN3CC2CC2)CC1` | -19.54 | 48 |
| `CC(C)c1nc(C2CCCN(C(=O)c3nccn4ccnc34)C2)no1` (stereo not shown) | 4.274 | 5.128 |
| `Cc1cnc(CN2CCN(c3nc(C)cs3)C(C)C2)cn1` (stereo not shown) | 13.41 | 27.71 |
| `Nc1cc(N2CCCC(Cc3ccc(F)cc3F)(C(=O)O)C2)ncn1` (stereo not shown) | 7.143 | 9.677 |
| `Cc1noc(C)c1CN1C[C@@H]2OCCN(Cc3cnn(C)c3)[C@@H]2C1` | 4.348 | 25 |
| `CN(C)CC1CN(CCOc2cccc(C#N)c2)CCO1` (stereo not shown) | 1.515 | -4.545 |
| `CN(Cc1n[nH]c2c1CCC2)C(=O)c1cccc(CCC(C)(C)O)c1` | -1.117 | -5.208 |
| `CC(C)N1CCC(c2cnc(-c3cncnc3)cn2)CC1` | 3.03 | 2.817 |
| `Cc1ncc(CNC(=O)CCc2cccc(F)c2)c(C2CCCN2C)n1` (stereo not shown) | -1.622 | 8.333 |
| `CN1CCc2ccc(NCc3cccs3)cc2C1=O` | 3.529 | 8.73 |
| `N#Cc1cccc(C(=O)N2CCN(c3ncccn3)CC2)c1` | 1.734 | 4.386 |
| `NCCC(=O)N1CCC2(CC1)CN(C(=O)Cc1cccc(Cl)c1)CCO2` | 6.509 | 8.276 |
| `COCCOc1ccc(C(=O)N2CCCC(n3cncn3)C2)cn1` (stereo not shown) | 2.639 | 12.04 |
| `O=C(Nc1ccccc1Cn1cncn1)C1CCN(C2CCCCC2)C1` (stereo not shown) | 6.494 | 22.86 |
| `Cc1ccc(CN2C[C@H]3CN(C(=O)c4ccno4)CCN3C2=O)cc1` | 11.88 | 22.22 |
| `CCC(=O)N1CCC(Oc2ccc(C(=O)NCCN(C)C)cc2Cl)CC1` | 6.977 | -3.279 |
| `CN(C)C(=O)c1c[nH]nc1C1CCN(S(=O)(=O)c2ccc(Cl)cc2)CC1` | 10.77 | 9.859 |
| `Cc1ccc(CNC(=O)C2CCN(C(=O)c3ccccc3)CC2)n1C` | 8.621 | 13.16 |
| `CN(C)CC1(O)CCCN(C(=O)Cc2ccc(Cl)c(Cl)c2)C1` (stereo not shown) | 2.235 | 4.167 |
| `Cn1cc(-c2cnc(N3CCOCC3)nc2)cc1C(=O)O` | 1.604 | 19.23 |
| `CO[C@@H]1CCN(Cc2nccs2)C[C@@H]1Cc1cccc(C)c1` | 4.926 | 20.59 |
| `Cc1noc([C@@H]2C[C@H]3OCC[C@H]3N(Cc3cc(C)c(C)o3)C2)n1` | 8.867 | 17.65 |
| `c1ccc(N2CCCC2)c(NCc2ccncc2)c1` | 7.975 | 14.81 |
| `Cc1nnc(CCNC(=O)C2CC(=O)N(C(C)(C)C)C2)s1` (stereo not shown) | 1.961 | 9.6 |

For reference, 6 entries once more:

compound,A,B
Cc1ncc(CNC(=O)CCc2cccc(F)c2)c(C2CCCN2C)n1 (stereo not shown),-1.622,8.333
Cn1cc(-c2cnc(N3CCOCC3)nc2)cc1C(=O)O,1.604,19.23
Cc1nc(CCNC(=O)CC2CCN(C(C)C)CC2)sc1Cl,-9.184,4.959
Cc1ccccc1NC(=O)c1cncc(C2CCNCC2)n1,2.308,8.451
c1ccc(N2CCCC2)c(NCc2ccncc2)c1,7.975,14.81
CN(Cc1n[nH]c2c1CCC2)C(=O)c1cccc(CCC(C)(C)O)c1,-1.117,-5.208

Measurements from “University of Dundee, Small-Polar-MMV Screening Library” (2021), ChEMBL document CHEMBL3988442.